Experiment [1] deals with LSM12 (like-Sm protein 12), endogenous (human (endogenous in SW480)) (UniProt Q3MHD2). The experiment can be described thus: co-IP; endogenous co-IP: SW480 lysate precleared with protein A/G magnetic beads, anti-LSM12 antibody or IgG 12 h at 4°C, protein A/G beads 4 h, Western blot. For orientation: Immunoblotting shows a protein as a band on a membrane.
Experiment [2] concerns the target CTNNB1 (β-Catenin), endogenous (human (endogenous in SW480)) (UniProt P35222). Kind of experiment: co-IP; endogenous co-IP with CTNNB1 antibody, Tet-On-shLSM12 cells with or without DOX (LSM12 knockdown); protein A/G beads, Western blot; cells SW480 by the methods, 293T-Tet-On-shLSM12 by the legend.
The target of experiment [3] is Flag-LSM12 (like-Sm protein 12) (UniProt Q3MHD2). The experiment can be described thus: co-IP; exogenous co-IP: 293T cells transfected with pcDNA3.1-LSM12-Flag + pcDNA3.1-CTNNB1-MYC (control pcDNA3.1-Flag + pcDNA3.1-CTNNB1-MYC), lysed after 48 h, immunoprecipitation with anti-flag and anti-cMYC antibodies, Western blot.

By UniProt entry, the sequences of proteins in these tests, tags left out.
UniProt Q3MHD2: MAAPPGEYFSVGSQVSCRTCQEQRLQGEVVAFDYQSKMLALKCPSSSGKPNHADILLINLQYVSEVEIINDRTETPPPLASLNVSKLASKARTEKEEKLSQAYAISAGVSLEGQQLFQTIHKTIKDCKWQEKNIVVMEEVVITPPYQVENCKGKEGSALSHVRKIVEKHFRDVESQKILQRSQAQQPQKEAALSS
UniProt P35222: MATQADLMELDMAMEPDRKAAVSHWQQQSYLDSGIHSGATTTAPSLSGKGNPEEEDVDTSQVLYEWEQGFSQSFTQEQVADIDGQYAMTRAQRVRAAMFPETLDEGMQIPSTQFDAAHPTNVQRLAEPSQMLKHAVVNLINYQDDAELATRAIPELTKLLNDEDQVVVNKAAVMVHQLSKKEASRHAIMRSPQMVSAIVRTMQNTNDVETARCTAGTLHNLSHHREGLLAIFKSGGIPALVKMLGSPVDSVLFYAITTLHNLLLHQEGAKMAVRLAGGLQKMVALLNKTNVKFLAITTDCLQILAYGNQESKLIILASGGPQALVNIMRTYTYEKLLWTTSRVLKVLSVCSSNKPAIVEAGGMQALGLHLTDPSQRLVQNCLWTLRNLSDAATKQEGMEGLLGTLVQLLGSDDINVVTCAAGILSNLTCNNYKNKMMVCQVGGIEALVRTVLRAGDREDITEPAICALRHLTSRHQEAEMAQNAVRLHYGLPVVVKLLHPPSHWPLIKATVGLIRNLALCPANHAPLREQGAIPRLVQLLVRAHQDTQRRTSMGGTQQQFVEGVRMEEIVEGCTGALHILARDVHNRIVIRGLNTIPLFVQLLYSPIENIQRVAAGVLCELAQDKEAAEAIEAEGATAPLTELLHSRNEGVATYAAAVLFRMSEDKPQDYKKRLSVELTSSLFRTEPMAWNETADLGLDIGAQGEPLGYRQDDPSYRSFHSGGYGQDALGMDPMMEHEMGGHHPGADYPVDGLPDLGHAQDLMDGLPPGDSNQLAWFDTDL
UniProt Q9UJU2: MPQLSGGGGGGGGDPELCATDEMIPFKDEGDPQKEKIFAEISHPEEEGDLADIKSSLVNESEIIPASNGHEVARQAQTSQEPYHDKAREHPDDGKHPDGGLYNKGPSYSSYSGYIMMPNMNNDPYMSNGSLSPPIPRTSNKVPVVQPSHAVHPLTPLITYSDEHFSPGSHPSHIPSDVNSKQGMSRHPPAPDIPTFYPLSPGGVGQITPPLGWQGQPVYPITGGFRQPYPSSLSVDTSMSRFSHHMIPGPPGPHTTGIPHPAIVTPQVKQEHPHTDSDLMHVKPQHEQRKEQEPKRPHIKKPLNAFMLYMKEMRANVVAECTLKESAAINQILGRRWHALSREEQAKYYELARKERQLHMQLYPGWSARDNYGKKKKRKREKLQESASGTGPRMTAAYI
UniProt P36402: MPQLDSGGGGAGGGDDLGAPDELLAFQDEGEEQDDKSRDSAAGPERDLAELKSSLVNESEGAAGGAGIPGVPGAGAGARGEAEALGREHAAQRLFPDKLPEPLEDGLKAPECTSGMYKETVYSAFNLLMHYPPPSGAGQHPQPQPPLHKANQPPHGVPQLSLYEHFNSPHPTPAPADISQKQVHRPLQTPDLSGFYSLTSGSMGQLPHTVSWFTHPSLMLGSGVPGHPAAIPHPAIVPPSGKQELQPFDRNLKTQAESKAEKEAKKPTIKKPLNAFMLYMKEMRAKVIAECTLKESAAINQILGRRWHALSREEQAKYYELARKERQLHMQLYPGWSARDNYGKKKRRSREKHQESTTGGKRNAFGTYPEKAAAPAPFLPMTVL

Results are given in words; binding and its absence hold for the method and conditions named. Binding seen in cells or lysates may run through a third protein. Some results given as binding are weak or reduced against the parent protein; the word gives no strength.

Regarding “CTNNB1 (β-Catenin), endogenous (from UniProt P35222 1-781)”, the binding result in experiment [1] is on record as “binds”.
With “LEF1 (lymphoid enhancer factor), endogenous (from UniProt Q9UJU2 1-399)”, the binding result in experiment [2] is given as “binds”.
On to “Myc-CTNNB1 (β-Catenin) (from UniProt P35222 1-781)”, for which the binding result in experiment [3] is reported as “binds”.
Consider “TCF1 (T cell-specific transcription factor), endogenous (from UniProt P36402 1-384)”, for which, in experiment [2], the binding entry is “binds”.

For the origin of these results see article PMC10207973.
